Data as given in patent EP1987837A1 (Technische Universität Dresden Medizinische Fakultät Carl …, dated 2008).
Results are given in words; binding and its absence hold for the method and conditions named. Binding seen in cells or lysates may run through a third protein. Some entries that bind do so weakly or less than the wild type. Where a sequence is shown, tags or fusion partners need not be part of it.

Assays:
[1] = target: T1, GST-ICA512601-979 (Homo sapiens (Human)) (UniProt Q16849); assay: GST pull-down of purified bacterial proteins, anti-His blot
T1 sequence: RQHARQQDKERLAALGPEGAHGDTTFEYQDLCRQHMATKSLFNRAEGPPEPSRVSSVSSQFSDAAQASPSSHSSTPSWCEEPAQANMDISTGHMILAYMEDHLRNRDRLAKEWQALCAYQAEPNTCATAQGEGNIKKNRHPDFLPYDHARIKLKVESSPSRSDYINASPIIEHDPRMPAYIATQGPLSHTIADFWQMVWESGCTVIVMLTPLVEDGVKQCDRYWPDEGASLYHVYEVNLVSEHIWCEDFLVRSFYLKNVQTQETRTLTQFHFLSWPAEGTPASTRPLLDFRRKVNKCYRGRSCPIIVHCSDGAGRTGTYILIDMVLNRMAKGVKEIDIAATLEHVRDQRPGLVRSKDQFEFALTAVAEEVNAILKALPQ

[2] = target: T2, GST-ICA512663-979 (Homo sapiens (Human)) (UniProt Q16849); assay: as above
T2 sequence: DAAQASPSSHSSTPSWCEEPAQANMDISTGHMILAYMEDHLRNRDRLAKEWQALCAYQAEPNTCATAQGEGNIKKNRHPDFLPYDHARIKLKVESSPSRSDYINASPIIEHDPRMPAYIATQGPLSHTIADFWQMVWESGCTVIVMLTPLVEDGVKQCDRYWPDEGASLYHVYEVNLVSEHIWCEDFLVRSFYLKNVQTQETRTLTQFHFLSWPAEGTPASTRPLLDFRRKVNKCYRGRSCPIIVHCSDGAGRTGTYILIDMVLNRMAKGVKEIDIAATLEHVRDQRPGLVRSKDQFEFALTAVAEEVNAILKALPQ

[3] = target: T1, GST-ICA512601-979 (Homo sapiens (Human)); assay: GST pull-down with rising ICA512601-979-His in the presence of 35S-β2-syntrophin, anti-His blot
[4] = target: T1, GST-ICA512601-979 (Homo sapiens (Human)); assay: GST pull-down, SDS-PAGE and autoradiography
[5] = target: T2, GST-ICA512663-979 (Homo sapiens (Human)); assay: GST pull-down, SDS-PAGE and autoradiography
[6] = target: T3, GST-ICA512700-959 (Homo sapiens (Human)) (UniProt Q16849); assay: GST pull-down, SDS-PAGE and autoradiography
T3 sequence: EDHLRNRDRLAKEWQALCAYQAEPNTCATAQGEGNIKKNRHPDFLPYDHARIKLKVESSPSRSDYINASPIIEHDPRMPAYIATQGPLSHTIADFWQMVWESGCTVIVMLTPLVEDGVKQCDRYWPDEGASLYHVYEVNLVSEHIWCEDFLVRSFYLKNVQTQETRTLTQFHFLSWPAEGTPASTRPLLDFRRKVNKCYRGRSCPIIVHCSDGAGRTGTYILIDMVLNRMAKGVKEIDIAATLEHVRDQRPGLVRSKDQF

[7] = target: T4, GST-ICA512700-979 (Homo sapiens (Human)) (UniProt Q16849); assay: GST pull-down, SDS-PAGE and autoradiography
T4 sequence: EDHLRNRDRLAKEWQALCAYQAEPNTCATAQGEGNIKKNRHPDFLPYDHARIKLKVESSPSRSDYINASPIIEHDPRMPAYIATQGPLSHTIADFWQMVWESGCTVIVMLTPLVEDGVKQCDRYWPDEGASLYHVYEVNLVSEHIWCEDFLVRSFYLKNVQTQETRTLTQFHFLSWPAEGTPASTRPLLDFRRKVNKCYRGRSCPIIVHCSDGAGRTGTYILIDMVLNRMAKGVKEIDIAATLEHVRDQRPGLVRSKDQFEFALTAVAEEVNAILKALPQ

Measured: binding

B1: ICA512601-979-His (protein)
chain: RQHARQQDKERLAALGPEGAHGDTTFEYQDLCRQHMATKSLFNRAEGPPEPSRVSSVSSQFSDAAQASPSSHSSTPSWCEEPAQANMDISTGHMILAYMEDHLRNRDRLAKEWQALCAYQAEPNTCATAQGEGNIKKNRHPDFLPYDHARIKLKVESSPSRSDYINASPIIEHDPRMPAYIATQGPLSHTIADFWQMVWESGCTVIVMLTPLVEDGVKQCDRYWPDEGASLYHVYEVNLVSEHIWCEDFLVRSFYLKNVQTQETRTLTQFHFLSWPAEGTPASTRPLLDFRRKVNKCYRGRSCPIIVHCSDGAGRTGTYILIDMVLNRMAKGVKEIDIAATLEHVRDQRPGLVRSKDQFEFALTAVAEEVNAILKALPQHHHHHH
binds: [1] | [2] | [3]

B2: 35S-ICA512601-979 (protein)
chain: T1 sequence
modifications: 35S-methionine labelled
binds: [4] | [5] | [6] | [7]

B3: 35S-ICA512700-979 (protein)
chain: T4 sequence
modifications: 35S-methionine labelled
binds: [4] | [5] | [6] | [7]
